Measured values from publication PMC3118807.
These are yes or no findings as the source states them, for the method shown. In cells and extracts the contact can be indirect. Some entries that bind do so weakly or less than the wild type. Sequences can lack the tags named with a protein.

Chains of the proteins cited; added tags and fusions are not shown.
UniProt P03230: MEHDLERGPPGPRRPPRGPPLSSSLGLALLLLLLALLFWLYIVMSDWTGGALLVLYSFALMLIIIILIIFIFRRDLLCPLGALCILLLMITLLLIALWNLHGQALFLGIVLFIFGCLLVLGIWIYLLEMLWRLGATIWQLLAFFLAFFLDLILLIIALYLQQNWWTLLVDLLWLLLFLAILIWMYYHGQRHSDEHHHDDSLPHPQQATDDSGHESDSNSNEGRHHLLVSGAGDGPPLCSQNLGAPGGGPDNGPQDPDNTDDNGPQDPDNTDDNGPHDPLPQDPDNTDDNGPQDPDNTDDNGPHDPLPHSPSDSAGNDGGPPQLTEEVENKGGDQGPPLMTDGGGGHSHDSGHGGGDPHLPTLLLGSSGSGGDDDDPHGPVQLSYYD

T1: Id1-HA (UniProt P41134)
T1 sequence: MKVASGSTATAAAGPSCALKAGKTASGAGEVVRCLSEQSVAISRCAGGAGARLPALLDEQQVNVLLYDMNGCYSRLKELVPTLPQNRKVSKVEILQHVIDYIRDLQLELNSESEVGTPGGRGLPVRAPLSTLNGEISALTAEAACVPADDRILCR


How the values were obtained:
Assay in all cases: co-IP; HEK293 cells co-transfected with tagged LMP1 and tagged Id1; 400 µg of cell lysate incubated with primary antibody (anti-FLAG or anti-HA) for 2 hours, Protein A agarose for 1 hour, beads washed three times with lysis buffer; Western blot with anti-FLAG (M2) and anti-HA (12CA5)
Id1-HA = target: T1, Id1-HA
[1] = target: HA-B95.8 LMP1 wild type (Epstein-Barr virus, B95.8 prototype) (UniProt P03230)
[2] = target: FLAG-B95.8 LMP1 wild type (Epstein-Barr virus, B95.8 prototype) (UniProt P03230)

| Molecule | binding [1] | other results |
| --- | --- | --- |
| FLAG-B95.8 LMP1 wild type (from UniProt P03230 1-386) |  | binding (Id1-HA): binds |
| FLAG-Id1ΔN (from UniProt P41134 65-155) (domain or fragment) | no binding |  |
| Id1-HA (protein, UniProt P41134 1-155) MKVASGSTATAAAGPSCALKAGKTASGAGEVVRCLSEQSVAISRCAGGAGARLPALLDEQQVNVLLYDMNGCYSRLKELVPTLPQNRKVSKVEILQHVIDYIRDLQLELNSESEVGTPGGRGLPVRAPLSTLNGEISALTAEAACVPADDRILCR |  | binding [2]: binds |
| FLAG-Id1 (protein, UniProt P41134 1-155) MKVASGSTATAAAGPSCALKAGKTASGAGEVVRCLSEQSVAISRCAGGAGARLPALLDEQQVNVLLYDMNGCYSRLKELVPTLPQNRKVSKVEILQHVIDYIRDLQLELNSESEVGTPGGRGLPVRAPLSTLNGEISALTAEAACVPADDRILCR | binds |  |
